Laboratory results from paper PMC8983240.
Results are given in words; binding and its absence hold for the method and conditions named. Binding seen in cells or lysates may run through a third protein. Some binding calls cover weakened binding; strength is not graded here.

Protein sequences, listed by entry. Tags and fused reporters are not part of them.
UniProt P17302: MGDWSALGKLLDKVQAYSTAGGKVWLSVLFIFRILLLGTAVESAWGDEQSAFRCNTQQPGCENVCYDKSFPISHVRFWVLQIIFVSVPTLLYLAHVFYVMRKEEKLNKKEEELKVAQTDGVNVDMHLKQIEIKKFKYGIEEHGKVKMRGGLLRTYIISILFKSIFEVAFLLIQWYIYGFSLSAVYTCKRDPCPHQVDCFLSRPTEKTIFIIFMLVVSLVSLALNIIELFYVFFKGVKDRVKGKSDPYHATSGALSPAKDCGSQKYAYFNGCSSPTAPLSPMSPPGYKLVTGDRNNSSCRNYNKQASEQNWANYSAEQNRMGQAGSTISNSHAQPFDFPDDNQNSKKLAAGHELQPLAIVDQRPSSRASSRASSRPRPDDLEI
UniProt Q93008: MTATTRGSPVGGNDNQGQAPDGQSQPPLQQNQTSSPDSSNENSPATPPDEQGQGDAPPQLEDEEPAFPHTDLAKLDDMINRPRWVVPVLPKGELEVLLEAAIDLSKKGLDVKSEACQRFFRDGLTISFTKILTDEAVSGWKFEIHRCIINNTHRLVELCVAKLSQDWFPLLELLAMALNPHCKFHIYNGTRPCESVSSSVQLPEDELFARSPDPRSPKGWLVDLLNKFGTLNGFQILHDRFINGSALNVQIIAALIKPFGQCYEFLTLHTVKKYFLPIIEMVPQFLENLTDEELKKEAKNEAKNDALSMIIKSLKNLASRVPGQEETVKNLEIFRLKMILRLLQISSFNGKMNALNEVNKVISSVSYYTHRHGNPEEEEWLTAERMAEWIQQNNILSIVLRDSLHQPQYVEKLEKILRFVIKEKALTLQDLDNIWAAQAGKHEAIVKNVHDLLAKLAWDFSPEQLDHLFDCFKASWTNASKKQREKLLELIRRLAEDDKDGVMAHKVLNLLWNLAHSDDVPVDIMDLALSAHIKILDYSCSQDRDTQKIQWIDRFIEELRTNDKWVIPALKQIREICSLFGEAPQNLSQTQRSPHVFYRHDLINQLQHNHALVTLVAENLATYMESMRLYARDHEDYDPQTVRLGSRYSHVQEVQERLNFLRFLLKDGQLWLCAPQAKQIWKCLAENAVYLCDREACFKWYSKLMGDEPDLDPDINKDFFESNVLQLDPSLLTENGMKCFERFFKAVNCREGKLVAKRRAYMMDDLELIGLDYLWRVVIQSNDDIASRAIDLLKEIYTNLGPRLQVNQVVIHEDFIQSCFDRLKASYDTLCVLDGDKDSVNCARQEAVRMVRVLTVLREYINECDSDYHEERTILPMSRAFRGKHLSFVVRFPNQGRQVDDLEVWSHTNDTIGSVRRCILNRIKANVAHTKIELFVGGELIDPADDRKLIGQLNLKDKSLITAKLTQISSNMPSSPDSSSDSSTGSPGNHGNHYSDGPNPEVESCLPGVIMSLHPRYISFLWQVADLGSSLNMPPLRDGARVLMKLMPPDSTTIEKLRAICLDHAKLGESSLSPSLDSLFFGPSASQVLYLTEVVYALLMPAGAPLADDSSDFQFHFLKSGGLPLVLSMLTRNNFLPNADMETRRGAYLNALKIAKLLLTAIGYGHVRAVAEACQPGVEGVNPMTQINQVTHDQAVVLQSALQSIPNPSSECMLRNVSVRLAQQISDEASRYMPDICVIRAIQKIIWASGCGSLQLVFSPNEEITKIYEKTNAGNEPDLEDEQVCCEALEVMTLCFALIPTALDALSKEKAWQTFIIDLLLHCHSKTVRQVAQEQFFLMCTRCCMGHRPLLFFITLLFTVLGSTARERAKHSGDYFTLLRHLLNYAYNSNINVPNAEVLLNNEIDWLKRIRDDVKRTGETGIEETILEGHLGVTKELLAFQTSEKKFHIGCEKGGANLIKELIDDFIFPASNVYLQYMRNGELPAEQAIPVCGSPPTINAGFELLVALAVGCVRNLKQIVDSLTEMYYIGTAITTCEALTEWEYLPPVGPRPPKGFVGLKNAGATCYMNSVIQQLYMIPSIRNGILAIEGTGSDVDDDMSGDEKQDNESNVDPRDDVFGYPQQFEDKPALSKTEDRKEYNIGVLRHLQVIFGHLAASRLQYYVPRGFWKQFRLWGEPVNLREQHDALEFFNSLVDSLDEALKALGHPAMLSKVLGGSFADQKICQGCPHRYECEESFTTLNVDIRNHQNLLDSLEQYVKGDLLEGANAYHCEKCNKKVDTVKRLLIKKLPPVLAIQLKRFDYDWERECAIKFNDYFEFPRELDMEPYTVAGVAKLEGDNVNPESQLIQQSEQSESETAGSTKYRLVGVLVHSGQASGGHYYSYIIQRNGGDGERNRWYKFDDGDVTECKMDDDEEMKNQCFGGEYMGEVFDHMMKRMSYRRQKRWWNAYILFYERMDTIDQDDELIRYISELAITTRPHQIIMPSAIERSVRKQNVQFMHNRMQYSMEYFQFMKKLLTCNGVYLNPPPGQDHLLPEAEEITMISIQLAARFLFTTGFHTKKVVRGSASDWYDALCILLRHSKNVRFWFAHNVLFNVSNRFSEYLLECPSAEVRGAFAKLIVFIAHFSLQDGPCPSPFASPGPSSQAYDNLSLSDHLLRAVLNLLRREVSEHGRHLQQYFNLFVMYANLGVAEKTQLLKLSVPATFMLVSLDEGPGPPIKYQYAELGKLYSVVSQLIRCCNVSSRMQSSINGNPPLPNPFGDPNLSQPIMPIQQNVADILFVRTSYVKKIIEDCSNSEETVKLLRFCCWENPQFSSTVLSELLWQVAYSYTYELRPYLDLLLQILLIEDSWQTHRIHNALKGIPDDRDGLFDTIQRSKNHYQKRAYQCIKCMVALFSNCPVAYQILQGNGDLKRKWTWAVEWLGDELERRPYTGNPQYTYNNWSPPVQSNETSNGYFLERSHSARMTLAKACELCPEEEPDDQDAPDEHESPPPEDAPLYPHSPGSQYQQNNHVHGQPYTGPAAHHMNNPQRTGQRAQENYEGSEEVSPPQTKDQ

Molecular target: Connexin 43 (Cx43), endogenous (human (endogenous in primary ligament fibroblasts from patients)) (UniProt P17302)
Assay: co-IP; primary ligament fibroblast extract with anti-USP9X antibody, anti-Cx43 antibody or control IgG for 1 h at 4°C, A/G-agarose 3 h at 4°C, washed three times with lysis buffer, Western blotting; endogenous proteins

- binding: binds
Substance: Ubiquitin-specific protease 9 X-chromosome (USP9X) (from UniProt Q93008 1-2554) (enzyme)
